Measured values taken from paper PMC8909127 (Frontiers in Microbiology, 2022).
Like-named read-outs stand apart in the source and are kept apart here. No constants are given. Whether binding was seen depends on the method and setting. For some of these results: In cells and extracts the contact can be indirect. Some binding calls cover weakened binding; strength is not graded here. For some of these results: Where a sequence is shown, tags or fusion partners need not be part of it.

Sequences of proteins named here, by UniProt entry; tags and fusion partners are left off. Residues count along the entry.
UniProt Q07157, residues 184-264: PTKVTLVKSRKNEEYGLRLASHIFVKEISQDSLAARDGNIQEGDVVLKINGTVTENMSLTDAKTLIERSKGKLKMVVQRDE
UniProt Q8TEW0, residues 582-685: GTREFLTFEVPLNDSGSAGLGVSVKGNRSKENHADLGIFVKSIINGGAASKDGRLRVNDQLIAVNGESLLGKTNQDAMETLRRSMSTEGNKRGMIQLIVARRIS
UniProt P0DTC4: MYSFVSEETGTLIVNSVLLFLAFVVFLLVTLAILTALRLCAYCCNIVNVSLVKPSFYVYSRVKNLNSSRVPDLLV

Legend:
GST-PDZ MLLT4 (human) [1] = target: T1, GST-PDZ MLLT4 (human) (UniProt P55196); assay: pull-down; […], NaCl 200 mM, 0.1% Triton; […]; only the target purified
T1 sequence: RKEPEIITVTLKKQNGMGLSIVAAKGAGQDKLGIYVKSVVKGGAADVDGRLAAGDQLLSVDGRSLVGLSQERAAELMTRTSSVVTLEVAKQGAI

GST-PDZ MPP5 (human) [2] = target: T2, GST-PDZ MPP5 (human) (UniProt Q8N3R9); assay: as above
T2 sequence: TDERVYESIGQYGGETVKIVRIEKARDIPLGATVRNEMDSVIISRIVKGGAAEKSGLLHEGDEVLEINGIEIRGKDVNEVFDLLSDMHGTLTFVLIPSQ

GST-PDZ LNX2 (human) [3] = target: T3, GST-PDZ LNX2 (human) (UniProt Q8N448); assay: as above
T3 sequence: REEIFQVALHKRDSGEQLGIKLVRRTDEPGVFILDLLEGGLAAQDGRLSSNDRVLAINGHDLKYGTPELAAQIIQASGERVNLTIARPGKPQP

GST-PDZ ZO1 (human) [4] = target: GST-PDZ ZO1 (human) (UniProt Q07157); assay: as above
GST-PDZ PARD3 (human) = GST-PDZ PARD3 (human) (UniProt Q8TEW0); assay: as above
GST-PDZ MLLT4 (human) [5] = target: T1, GST-PDZ MLLT4 (human); assay: as above; remark: listed apart in the source
GST-PDZ MPP5 (human) [6] = target: T2, GST-PDZ MPP5 (human); assay: as above; remark: listed apart in the source
GST-PDZ LNX2 (human) [7] = target: T3, GST-PDZ LNX2 (human); assay: as above; remark: listed apart in the source
GST-PDZ ZO1 (human) [8] = target: GST-PDZ ZO1 (human) (UniProt Q07157); assay: as above; remark: listed apart in the source
MLLT4 PDZ (human) = target: T4, MLLT4 PDZ (human) (UniProt P55196); assay: crystal structure; both purified
T4 sequence: T1 sequence

Measured: binding

GFP-tagged wild-type full-length E protein (from UniProt P0DTC4 1-75)
binds: GST-PDZ MLLT4 (human) [1] | GST-PDZ MPP5 (human) [2] | GST-PDZ LNX2 (human) [3] | GST-PDZ ZO1 (human) [4]

NLNSSRVPDLLV (domain or fragment) [GFP-tagged cytoplasmic tail of protein E (last 12 residues)]
binds: GST-PDZ PARD3 (human) | GST-PDZ MLLT4 (human) [5] | GST-PDZ MPP5 (human) [6] | GST-PDZ LNX2 (human) [7] | GST-PDZ ZO1 (human) [8]

B1: C-terminal SARS-CoV-2-E PBM peptide (peptide)
peptide: NLNSSRVPDLLV
notes: also called SARS-CoV-2 WT; SARS-CoV-2 peptide E
binds: MLLT4 PDZ (human)
